These results are taken from the supplement of paper PMC8256030.

Assay [1] has as its system SARS-CoV-2 -1 PRF reporter mCherry-FSE-GFP(-1). Kind of assay: mCherry (red) intensity as percent of control; higher = higher upstream reporter expression. To be noted: 10 µM; 24 h; HEK293T.
The test system is the same in assay [2]. Kind of assay: percent effect, decrease of GFP/mCherry ratio (-1 PRF reporter) relative to controls; higher = stronger frameshift inhibition. As to conditions: 10 µM; 24 h; HEK293T.

Each structure is given as a SMILES string. Values joined by “and” are separate entries in the source; they are usually repeats but may differ in a detail not shown here. Equal entries are not always repeated. Structures can show the parent of a compound that is named as a salt. The list shows a part of the results. Single values are uncertain here, since repeats match poorly.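 HEK293T cells were given each compound shortly before transfection with a reporter in which red mCherry is followed by the SARS-CoV-2 frameshift element and then GFP in the −1 frame, so GFP appears only after frameshifting.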

For `CCOC(=O)CC(=O)N1CCSC1COc1ccccc1OC` (stereo unspecified) [moguisteine], the mCherry in assay [1] was found to be 124%. Moreover, the percent effect in assay [2] was -1.38%.
Taken in the same sequence, the figures for `O=C(O)[C@H](CC(=O)N1C[C@H]2CCCC[C@H]2C1)Cc1ccccc1` [mitiglinide] were 114% and -3.3%.
In turn, `CCCCCCC[N+](CC)(CC)CCCCc1ccc(Cl)cc1` [clofilium tosylate] showed a mCherry in assay [1] of 36.4%. Further, in assay [2], the percent effect was -12.6%.
For the compound `CCOC(=O)C1=C[C@]2(CC)CCCN3CCc4c(n1c1ccccc41)[C@@H]32` [vinpocetine], the mCherry in assay [1] was found to be 95.1%. Further, the percent effect in assay [2] is -6.9%.
Take `CCCCOC(=O)c1ccc(N)cc1`: the mCherry in assay [1] is 123%. In assay [2], the percent effect is -8.96%.
In the case of `Nc1ncnc2c1ncn2[C@@H]1O[C@H](COP(=O)(O)O)[C@@H](O)[C@H]1O` [adenosine phosphate], the mCherry in assay [1] is 138% and 116% and 129%. In addition, the percent effect in assay [2] was 3.08% and -4.08% and -1.41%.
`CN1CCC(=C2c3ccccc3CCc3cccnc32)CC1` [azatadine] returned a mCherry in assay [1] of 108%. In addition, the percent effect in assay [2] amounted to 2.45%.
For the compound `CN1CC(=O)N=C1NC(=O)Nc1cccc(Cl)c1` [fenobam], the mCherry in assay [1] amounted to 68.4%. In addition, the percent effect in assay [2] was -16.3%.
As to `CC1=C(C(=O)O)N2C(=O)[C@@H](NC(=O)[C@H](N)C3=CCC=CC3)[C@H]2SC1`, the mCherry in assay [1] stood at 88.3%. Moreover, in assay [2], the percent effect was 1.75%.
`CC(C)[C@H]1CC[C@H](C(=O)N[C@H](Cc2ccccc2)C(=O)O)CC1` [Nateglinide] gave a mCherry in assay [1] of 91.6%. Further, the percent effect in assay [2] worked out at 6.42%.
Consider `O=c1[nH]c(=O)c2ccccc2o1` [carsalam], for which the mCherry in assay [1] turned out to be 130%. For the same compound, the percent effect in assay [2] was -3.77%.
As to `c1ccc2c(SC3=NCCN3)c[nH]c2c1` [tinazoline], the mCherry in assay [1] is 95%. Besides, in assay [2], the percent effect was -1.03%.
For the compound `CC(=O)OCC1=C(C(=O)O)N2C(=O)[C@@H](NC(=O)[C@H](N)c3ccccc3)[C@H]2SC1` [cefaloglycin], the mCherry in assay [1] is 102%. Moreover, the percent effect in assay [2] is -2.84%.
On to `Cc1ccnc(NC(=O)C(C)c2cccc(C(=O)c3ccccc3)c2)c1` (stereo unspecified) [piketoprofen], for which the mCherry in assay [1] was determined as 102%. Further, in assay [2], the percent effect is -9.61%.
Regarding `C[C@@H](O)[C@H]1C(=O)N2C(C(=O)O)=C(SCCNC=N)C[C@H]12` [Imipenem], the mCherry in assay [1] turned out to be 73.9%. Moreover, in assay [2], the percent effect was -0.712%.
Consider `C[C@]1(Cn2ccnn2)[C@H](C(=O)O)N2C(=O)C[C@H]2S1(=O)=O` [tazobactam], for which the mCherry in assay [1] was 97.3%. Also, the percent effect in assay [2] is -3.47%.
`CC(C)(Cc1ccccc1)NCC(O)c1ccc(O)c(NS(C)(=O)=O)c1` (stereo unspecified) [zinterol] came in with a mCherry in assay [1] of 104%. Further, the percent effect in assay [2] was -2.21%.
`CCCN(CCC)CCc1cccc2c1CC(=O)N2` [ropinirole]: in assay [1], the mCherry came to 86.4%. For the same compound, the percent effect in assay [2] amounted to 0.12%.
`Nc1nc(O)c2ncn(CCC(CO)CO)c2n1` [penciclovir]: the mCherry in assay [1] stood at 108%. The percent effect in assay [2] was -4.62%.
On to `O=C(O)c1ccccc1`, for which the mCherry in assay [1] was found to be 103%. Further, the percent effect in assay [2] is -2.06%.
Consider `COc1c2ccoc2cc2oc(CO[C@@H]3O[C@H](CO)[C@@H](O)[C@H](O)[C@H]3O)cc(=O)c12` [khelloside], for which the mCherry in assay [1] worked out at 113%. Further, the percent effect in assay [2] came to 0.241%.
Taken in the same sequence, the figures for `COc1ccc2c(c1)c(CC(=O)NO)c(C)n2C(=O)c1ccc(Cl)cc1` [oxametacin] were 53% and -4.72%.
For the compound `CN1C(CCl)Nc2cc(Cl)c(S(N)(=O)=O)cc2S1(=O)=O` (stereo unspecified) [methyclothiazide], the mCherry in assay [1] was 106%. The percent effect in assay [2] was found to be 2.15%.
In the case of `Nc1nc(=O)n([C@@H]2CS[C@H](CO)O2)cc1F` [emtricitabine], the mCherry in assay [1] was 89.2%. The percent effect in assay [2] came to 3.92%.
In assay [1], `CC(=O)OCC(=O)NCCCOc1cccc(CN2CCCCC2)c1` [Roxatidine acetate·HCl] returned a mCherry of 122%. For the same compound, the percent effect in assay [2] came out at 5.09%.
`CC[C@H]1OC(=O)[C@H](C)[C@@H](O[C@H]2C[C@@](C)(OC)[C@@H](O)[C@H](C)O2)[C@H](C)[C@@H](O[C@@H]2O[C@H](C)C[C@H](N(C)C)[C@H]2O)[C@](C)(O)C[C@@H](C)/C(=N\OCOCCOC)[C@H](C)[C@@H](O)[C@]1(C)O` [roxithromycin] gave a mCherry in assay [1] of 93.6%. In assay [2], the percent effect was -2.13%.
Taken in the same sequence, the figures for `C[N+](C)(CCOc1ccccc1)Cc1ccccc1.O=C([O-])c1cc2ccccc2cc1O` [bephenium hydroxynaphthoate] were 116% and -0.586%.
Regarding `CN1C(=O)CC(C)(c2ccccc2)C1=O` (stereo unspecified) [mesuximide], the mCherry in assay [1] was found to be 78.3%. Besides, the percent effect in assay [2] was -4.69%.
Turning to `COc1cc2[nH]c(C)c(CCN3CCN(c4ccccc4)CC3)c2cc1OC` [oxypertine], the mCherry in assay [1] was 74.9%. Further, in assay [2], the percent effect was -3.04%.
For the compound `Cc1ccc(S(=O)(=O)NCl)cc1` [tosylchloramide sodium], the mCherry in assay [1] worked out at 119%. In addition, the percent effect in assay [2] is -2.07%.
As to `O=C(N[C@H](CO)[C@H](O)c1ccc([N+](=O)[O-])cc1)C(Cl)Cl` [chloramphenicol], the mCherry in assay [1] is 87.6% and 98.1%. Besides, the percent effect in assay [2] was 1.56% and -6.29%.
`CO/N=C(\C(=O)N[C@@H]1C(=O)N2C(C(=O)O)=C(CSc3nc(=O)c(O)nn3C)CS[C@H]12)c1csc(N)n1` displayed a mCherry in assay [1] of 91.9%. Further, the percent effect in assay [2] was -3.64%.
On to `CC(=O)N[C@H](Cc1ccc2ccccc2c1)C(=O)N[C@H](Cc1ccc(Cl)cc1)C(=O)N[C@H](Cc1cccnc1)C(=O)N[C@@H](CO)C(=O)N[C@@H](Cc1ccc(O)cc1)C(=O)N[C@H](CCCNC(N)=O)C(=O)N[C@@H](CC(C)C)C(=O)N[C@@H](CCCNC(=N)N)C(=O)N1CCC[C@H]1C(=O)N[C@H](C)C(N)=O` [Cetrotide], for which the mCherry in assay [1] came out at 122%. For the same compound, the percent effect in assay [2] is -7.62%.
